Data as given in PubChem BioAssay AID1259424 (University of Nebraska Medical Center, 2018)
Shown is a random part of about 14,000 reagents tested. 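Higher correlation or smaller distance means closer resemblance to KSR1 loss; control wells, including KSR1 knockdowns, recur on many plates.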 Further read-outs or replicates are left out here. No sequences are given here. The record does not give: the time to read-out.

- Aim: 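Find knockdowns that reproduce the expression shifts seen after KSR1 loss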 (primary screen)
- System: human HCT116 colon cancer cells
- Knock-down reagent: siRNA pool against human genes, 50 nM
- Read-out: 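Six signature mRNAs by branched-DNA multiplex assay, scaled to two housekeeping genes and non-targeting median, log2; matched to mean KSR1 knockdown profile by Pearson correlation and euclidean distance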
- Scale: mean correlation with KSR1 profile: higher = expression change more like KSR1 knockdown; mean distance from KSR1 profile: higher = expression change less like KSR1 knockdown

NR3C2 — mean correlation with KSR1 profile = 0.00713; mean distance from KSR1 profile = 1.65
PARVG — mean correlation with KSR1 profile = -0.31; mean distance from KSR1 profile = 1.72
RBFOX1 — mean correlation with KSR1 profile = 0.178; mean distance from KSR1 profile = 1.95
GLYR1 — mean correlation with KSR1 profile = 0.069; mean distance from KSR1 profile = 1.8
AFF2 — mean correlation with KSR1 profile = -0.369; mean distance from KSR1 profile = 2.14
UQCC2 — mean correlation with KSR1 profile = 0.248; mean distance from KSR1 profile = 2.08
VEGFA — mean correlation with KSR1 profile = 0.506; mean distance from KSR1 profile = 1.02
LOXL2 — mean correlation with KSR1 profile = -0.712; mean distance from KSR1 profile = 3.3
CYP39A1 — mean correlation with KSR1 profile = -0.768; mean distance from KSR1 profile = 2.46
CLCNKA — mean correlation with KSR1 profile = -0.723; mean distance from KSR1 profile = 2.16
STGC3 (retired record) — mean correlation with KSR1 profile = -0.534; mean distance from KSR1 profile = 2.11
COLEC10 — mean correlation with KSR1 profile = -0.229; mean distance from KSR1 profile = 2.25
